Experimental data published in PubChem BioAssay AID540276 (National Center for Advancing Translational Sciences (NCATS), 2011).
Hit rate of the full screen: of about 300,000 compounds, about 5,400 (1.8%) were called active. This list was built around the results that the source calls inconclusive (neither active nor inactive); the mix of calls is not that of the screen. The call rests on the fitted dose curve; tested in HEK293 cells. A potency beside an inconclusive call is a rough fit, not a confirmed value.

Test: qHTS for inhibitors of binding or entry into cells for Marburg Virus
Conditions: Marburg virus pseudotyped entry inhibition, cell reporter; activity change, negative = inhibition: at 37.8 µM (top of the series) unless noted
On the % scale 0 is the no-effect control and ±100 the full control effect; potency means the concentration at half of the fitted maximal effect.

**Q.** Which Potency does the source give for `CCOP(=O)(NC(c1ccccc1)c1nc2ccccc2[nH]c1=O)OCC` (stereo not drawn) here?
**A.** inconclusive: 5.62 µM [inhibitor, partial curve, poor fit]

**Q.** For `CCN(CC(=O)Nc1cccc(C#N)c1)CC(=O)Nc1cccc(OC)c1`, which Potency is on record?
**A.** inconclusive: 35.5 µM [inhibitor, single point]

**Q.** With `CCOC(=O)N1CCN(C(=O)C2CCN(S(=O)(=O)c3ccc(Cl)cc3)CC2)CC1` as the compound, how does the Potency read?
**A.** inconclusive: 2.06 µM [inhibitor, partial curve, poor fit]

**Q.** With `COc1cc(NC(=O)c2c(F)c(F)c(F)c(F)c2F)c(OC)cc1Cl` as the compound, how does the Potency read?
**A.** inconclusive: 32.6 µM [inhibitor, single point]

**Q.** With `CSc1ccc(C(=O)C2CCCN(C(=O)CN3CCOC3=O)C2)cc1` (stereo not drawn) as the compound, how does the “activity change, negative = inhibition” value read?
**A.** inactive: 9.3%

**Q.** For `N#Cc1cc([N+](=O)[O-])c(-n2nnc3ccccc32)c([N+](=O)[O-])c1`, which Potency is on record?
**A.** inconclusive: 18.3 µM [inhibitor, partial curve]

**Q.** For `COc1ccc(/C=C/C(=O)Oc2ccc(/C=N/NC(=O)c3ccncc3)cc2)cc1`, which “activity change, negative = inhibition” value is on record?
**A.** inactive: 28.9% [at 46.1 µM]

**Q.** For `O=C(Nc1ccccn1)C12CC3CC(CC(C3)C1)C2`, which “activity change, negative = inhibition” value is on record?
**A.** inactive: 9.64%

**Q.** Which “activity change, negative = inhibition” value does the source give for `Cn1c(SCC(=O)N2CCCc3ccccc32)nnc1-c1ccccc1` here?
**A.** inactive: -1.77%

**Q.** For `Oc1ccccc1N=Cc1sc2ccccc2c1Cl`, which Potency is on record?
**A.** inconclusive: 0.708 µM [inhibitor, full curve, poor fit]

**Q.** For `COc1ccc(-c2cn3c(C)c(C(=O)Nc4cccc(C)n4)sc3n2)cc1`, which Potency is on record?
**A.** inconclusive: 29.1 µM [inhibitor, single point]

**Q.** For `COc1ccc(CN2CCCN(S(=O)(=O)c3ccc(Br)cc3)CC2)cc1`, which Potency is on record?
**A.** inconclusive: 11.2 µM [inhibitor, partial curve, poor fit]

**Q.** For `CC1=C(C(=O)Nc2ccccc2)C(c2cccnc2)n2nc(SCc3ccccc3Cl)nc2N1` (stereo not drawn), which “activity change, negative = inhibition” value is on record?
**A.** inactive: 5.61% [at 46.1 µM]

**Q.** With `O=C(NC1CC1)c1cccc(Oc2ccccc2)c1` as the compound, how does the “activity change, negative = inhibition” value read?
**A.** inactive: -21.9%

**Q.** With `CCOc1ccc(N(C(C)C(=O)N/N=C(\C)c2cccc(NC(=O)c3ccccc3)c2)S(C)(=O)=O)cc1` (stereo not drawn) as the compound, how does the Potency read?
**A.** inconclusive: 25.1 µM [inhibitor, single point]

**Q.** For `Cc1sc2ncn(CC(=O)NCCCN3CC(C)CC(C)C3)c(=O)c2c1S(=O)(=O)N1CC(C)CC(C)C1` (stereo not drawn), which Potency is on record?
**A.** inconclusive: 20.6 µM [inhibitor, partial curve]

**Q.** Which Potency does the source give for `Cc1ccc(N(CCC(=O)O)S(=O)(=O)c2ccc(C)cc2)cc1` here?
**A.** inconclusive: 5.62 µM [activator, single point]

**Q.** With `O=c1[nH]c(=S)[nH]c2nccnc12` as the compound, how does the Potency read?
**A.** inconclusive: 0.316 µM [inhibitor, full curve, poor fit]

**Q.** For `COc1cccc(-c2nnc(SCN3C(=O)c4ccccc4C3=O)n2C)c1`, which Potency is on record?
**A.** inconclusive: 10 µM [activator, partial curve, poor fit]

**Q.** For `CC1CN(C(=O)CCS(=O)(=O)c2ccccc2)CC(C)O1` (stereo not drawn), which Potency is on record?
**A.** inconclusive: 15.8 µM [activator, partial curve, poor fit]

**Q.** Which Potency does the source give for `COCCN1Cc2cccc(C(=O)NCc3ccc4c(c3)OCO4)c2C1=O` here?
**A.** inconclusive: 10 µM [activator, partial curve, poor fit]

**Q.** With `O=C(O)COc1ccccc1O` as the compound, how does the Potency read?
**A.** inconclusive: 25.9 µM [activator, single point]

**Q.** For `CCC(CC)c1nnc(NC(=O)c2ccc3c(c2)OCO3)s1`, which Potency is on record?
**A.** inconclusive: 2.51 µM [activator, full curve, poor fit]

**Q.** For `O=C(Nc1nc2n(n1)C(c1ccccc1)CC(c1ccc(Cl)cc1)N2)c1ccco1` (stereo not drawn), which Potency is on record?
**A.** inconclusive: 14.1 µM [inhibitor, single point]

**Q.** For `C=CCn1c(SCC(=O)N(C)CC(=O)Nc2ccc(C)cc2)nnc1-c1ccncc1`, which “activity change, negative = inhibition” value is on record?
**A.** inactive: 14.4% [at 46.1 µM]

**Q.** Which Potency does the source give for `COc1ccc(/C=N/NC(=O)CSc2nnc(CCCc3ccc(OC)c(C)c3)o2)cc1` here?
**A.** inconclusive: 15.8 µM [inhibitor, partial curve, poor fit]

**Q.** Which Potency does the source give for `CCOC(=O)c1ccc(N2C(=O)c3n[nH]c(-c4ccco4)c3C2c2ccc(O)cc2)cc1` (stereo not drawn) here?
**A.** active: 11.2 µM

**Q.** For `O=C(OCc1c(Cl)cccc1Cl)c1ccncc1`, which Potency is on record?
**A.** inconclusive: 6.31 µM [inhibitor, single point]

**Q.** Which “activity change, negative = inhibition” value does the source give for `COc1ccc(NC(=O)CNC(=O)c2nn(-c3ccc(OC)c(OC)c3)c(=O)c3ccccc23)c(OC)c1` here?
**A.** inactive: -18.1% [at 46.1 µM]

**Q.** With `O=C(NCCCl)Nc1cccc(Br)c1` as the compound, how does the “activity change, negative = inhibition” value read?
**A.** inactive: 13.4% [at 46.1 µM]

**Q.** With `CC(=O)N(c1nc(CCl)cs1)c1c(C)cc(C)cc1C` as the compound, how does the “activity change, negative = inhibition” value read?
**A.** inactive: 4.12% [at 46.1 µM]

**Q.** Which Potency does the source give for `Cc1ccc(C)c(Cn2nnc3c(=O)[nH]c(C4CCN(S(=O)(=O)c5ccc(S(=O)(=O)N(C)C)cc5)CC4)nc32)c1` here?
**A.** inconclusive: 20 µM [inhibitor, single point]

**Q.** For `Cc1ccc(CN2C(=O)N/C(=C\c3cccn3-c3cccc(C(=O)O)c3)C2=O)cc1`, which “activity change, negative = inhibition” value is on record?
**A.** inactive: -18% [at 46.1 µM]

**Q.** With `O=C(NNC(=O)c1cc(-c2ccc(Cl)cc2Cl)nc2ccccc12)Nc1ccccc1` as the compound, how does the Potency read?
**A.** inconclusive: 10 µM [inhibitor, partial curve, poor fit]

**Q.** For `O=C(Cn1c(=S)[nH]c2ccccc21)c1ccccc1`, which Potency is on record?
**A.** inconclusive: 0.82 µM [inhibitor, single point]

**Q.** With `O=C(c1ccc(Cl)c(S(=O)(=O)N2CCc3ccccc3C2)c1)N1CCN(c2ccccc2)CC1` as the compound, how does the Potency read?
**A.** inconclusive: 35.5 µM [inhibitor, single point]

**Q.** For `COc1ccc(-c2cc(C(=O)NNC(=S)NC(=O)c3c(-c4ccccc4)noc3C)[nH]n2)cc1`, which Potency is on record?
**A.** inconclusive: 2.24 µM [inhibitor, partial curve, poor fit]

**Q.** With `CCCCCOc1c(Cl)cc(C(=O)N(Cc2ccc(C)o2)C2CCS(=O)(=O)C2)cc1Cl` (stereo not drawn) as the compound, how does the “activity change, negative = inhibition” value read?
**A.** inactive: -25.1% [at 46.1 µM]

**Q.** Which “activity change, negative = inhibition” value does the source give for `CCc1c(C)sc(NC(=O)c2cc(-c3cccc(Cl)c3)on2)c1C#N` here?
**A.** inactive: -3.5% [at 46.1 µM]

**Q.** For `Cc1cccc(N2CCN(C(=O)COc3ccc4c(C)cc(=O)oc4c3C)CC2)c1C`, which Potency is on record?
**A.** inconclusive: 11.2 µM [inhibitor, partial curve, poor fit]

**Q.** With `Brc1ccc2c(c1)OCCOCCOCCOCCOCCOCCO2` as the compound, how does the Potency read?
**A.** inconclusive: 14.1 µM [inhibitor, single point]

**Q.** With `CC(=O)c1ccc2noc(-c3cccc(F)c3)c2c1` as the compound, how does the “activity change, negative = inhibition” value read?
**A.** inactive: -29.9%

**Q.** For `Cc1ccc(C)c(NC(=O)Cn2cc(C(=O)c3ccco3)c3ccccc32)c1`, which “activity change, negative = inhibition” value is on record?
**A.** inactive: -22.3% [at 46.1 µM]
